The list shows a part of the results.
These sequences were tested against OsWRKY34 (Oryza sativa, UniProt Q0JBA9 1-250) (assay: protein-binding microarray (RPBM); PBS, 2% BSA, 51.3 ng/ul salmon testes DNA, 50 uM zinc acetate, 200 nM TF, 25 C, 1 h; high values mean tight binding). Details: protein: recombinant; tags: N-terminal polyhistidine and DsRed monomer fusion (pET32a); label: CyDye5-dUTP incorporated in the synthesized complementary strand; 3' TTTTT single-stranded linker to array surface; dsDNA, one strand shown.
In short: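 Transcription factors, each fused N-terminally to a polyhistidine tag and DsRed, were expressed in E. coli BL21-CodonPlus and purified on Ni–NTA. A custom Agilent array was made double-stranded by primer extension with Cy5-dUTP and blocked with 2% BSA. It was incubated with 200 nM protein in PBS, 2% BSA, salmon testes DNA and 50 µM zinc acetate at 25 °C for 1 h, then washed. The binding signal is per-feature fluorescence intensity (arbitrary units) read on an Axon 4000B scanner.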

Amino acid sequences for entries named in this document (tags omitted).
UniProt Q0JBA9, entry or part of it: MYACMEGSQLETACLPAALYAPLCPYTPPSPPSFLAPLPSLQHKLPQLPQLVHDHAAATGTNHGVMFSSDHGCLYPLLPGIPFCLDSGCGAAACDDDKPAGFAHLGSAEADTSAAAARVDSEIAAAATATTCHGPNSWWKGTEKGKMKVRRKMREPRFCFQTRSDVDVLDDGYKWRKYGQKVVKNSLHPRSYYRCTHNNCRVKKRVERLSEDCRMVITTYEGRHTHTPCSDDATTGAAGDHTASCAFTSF

In order of falling binding signal:
1. AATAGGGCATGAACCCCAGCCATTTCTCCTCATCCCACACCGGAGTCACCTAGTGCAG  63200 fluorescence intensity (a.u.)
2. AATGTATGACGCCGTTGACTTTTTGCCCAACGTTTGACCACGGAGTCACCTAGTGCAG  38700 fluorescence intensity (a.u.)
3. GTTTTGACTTTTTTTTCTAATAAAATTTCTTTTATGTTTGCGGAGTCACCTAGTGCAG  18600 fluorescence intensity (a.u.)
4. TGGGGCTTTTTTTTCATCGGTTGTGCTTGACTCAGATACGCGGAGTCACCTAGTGCAG  15700 fluorescence intensity (a.u.)
5. TGTTATTTTGTGTAGTTTGGTTGGTCTGTTTGCTTCTATTCGGAGTCACCTAGTGCAG  15200 fluorescence intensity (a.u.)
6. GCTGTACCAGTACTGACCGGGGTGGGGTGGCGGGAGCGGACGGAGTCACCTAGTGCAG  14600 fluorescence intensity (a.u.)
7. GTATCTATAGCTCTCTAATATATTGTCTCGTTTTTCTCTACGGAGTCACCTAGTGCAG  12700 fluorescence intensity (a.u.)
8. ACCCACCCACCCGGCACCCACCCACCCACTACCTCTCTCTCGGAGTCACCTAGTGCAG  11900 fluorescence intensity (a.u.)
9. ATCAACAACGTCACCCTCCGCATGCGTACTCATCTTCATCCGGAGTCACCTAGTGCAG  11700 fluorescence intensity (a.u.)
10. CCCCATTGACGCCCACGCACGCCCACACCTCCCCATCAACCGGAGTCACCTAGTGCAG  11600 fluorescence intensity (a.u.)
11. GGTCAAACATTAAATAAAAAGTCAACGGCGTCATACATTACGGAGTCACCTAGTGCAG  11400 fluorescence intensity (a.u.)
12. GGATCTACTGGGTGGGAGGAGCGCGGCGCCGGGCGCCGCCCGGAGTCACCTAGTGCAG  11100 fluorescence intensity (a.u.)
13. ACTATTACTACCTCAGTTTTGAAATGTATGACGTTGACTTCGGAGTCACCTAGTGCAG  11000 fluorescence intensity (a.u.)
14. GCCATCCCGCTCGAACGCCGTCTTCTTGCTGCCCCAAAGGCGGAGTCACCTAGTGCAG  11000 fluorescence intensity (a.u.)
15. CATAGTTGCTACTCCCTATTAATACATCCCATCTCTTCCCCGGAGTCACCTAGTGCAG  10900 fluorescence intensity (a.u.)
16. ACCGTTTTGCCATCAATTTGCATATCACATCAGTTAATTTCGGAGTCACCTAGTGCAG  10800 fluorescence intensity (a.u.)
17. TTAATATCACTATCTCCACTTCAGTCGTTTTAATCTTTTTCGGAGTCACCTAGTGCAG  10800 fluorescence intensity (a.u.)
18. GGTGCGCGGGCGGGAGGTATCGGCGGTGGAGGCTGGTCGTCGGAGTCACCTAGTGCAG  10700 fluorescence intensity (a.u.)
19. TCGTTTTTCTCTTTAGTGTGTGTGTGTTGCGTTTTTGCAACGGAGTCACCTAGTGCAG  10300 fluorescence intensity (a.u.)
20. ATAGTTGACCAATTTCGGCTAAAAAATTCCTACTACTATTCGGAGTCACCTAGTGCAG  10300 fluorescence intensity (a.u.)
21. CTGGATTATTAGCTTTTTGTTAGTTGTTAGCCACCCAATACGGAGTCACCTAGTGCAG  10100 fluorescence intensity (a.u.)
22. GTCTATGGGCCGTGTGCTTTTCCGATTCTAATTCAGTTTTCGGAGTCACCTAGTGCAG  9940 fluorescence intensity (a.u.)
23. ATCTTCTCAGATGAGATGCCCGTGCATGCATGCTGATTGTCGGAGTCACCTAGTGCAG  9810 fluorescence intensity (a.u.)
24. TTCCTTTTCCGTTTTGATATTGGGTTATGTTGGTTGGTCTCGGAGTCACCTAGTGCAG  9800 fluorescence intensity (a.u.)
25. ATCCCCATCTCGCCATAGACGCTAACCTATGTCCCTTCTCCGGAGTCACCTAGTGCAG  9800 fluorescence intensity (a.u.)
26. CCATGGCGTGTAGCTAGCTAGTTTCTTTCTTTGCACTTCTCGGAGTCACCTAGTGCAG  9760 fluorescence intensity (a.u.)
27. CAAACCCCGCGCCGACGGGCGTCCTCCTCACCGACATTTCCGGAGTCACCTAGTGCAG  9700 fluorescence intensity (a.u.)
28. GTGTGGGTTGACCGAATTGGATCAAGATTATTGCGGGAGGCGGAGTCACCTAGTGCAG  9640 fluorescence intensity (a.u.)
29. TCACACGTTTCATTGACGTTTCCTAGCATCCGACCTCTCTCGGAGTCACCTAGTGCAG  9620 fluorescence intensity (a.u.)
30. ATTCTTTCTGAACCGTTTTCCGGAAAACCAGAGCTGTATACGGAGTCACCTAGTGCAG  9560 fluorescence intensity (a.u.)
31. GATCTATGGGGATTTGGGGTGATGGTACTGAAATCAATAGCGGAGTCACCTAGTGCAG  9550 fluorescence intensity (a.u.)
32. TCTCATACATCATCGTTCATACCTCTTCCTAACTAACCAGCGGAGTCACCTAGTGCAG  9550 fluorescence intensity (a.u.)
33. TAATAAAAATAGTGTCCTGTTTGCTTACCATTCATTATTCCGGAGTCACCTAGTGCAG  9540 fluorescence intensity (a.u.)
34. ACGCCGCGCCTCCACATCCGCTCCACCCGCCGCCTCTCACCGGAGTCACCTAGTGCAG  9360 fluorescence intensity (a.u.)
35. GAATCATTTAAACCTAATTGCGCCATGATTTGACAATGTACGGAGTCACCTAGTGCAG  9330 fluorescence intensity (a.u.)
36. CGCGGGTGACGCGAGAATATTCCGAGTTCATATCCTTCATCGGAGTCACCTAGTGCAG  9290 fluorescence intensity (a.u.)
37. GGTCGCCATCCACCGCCACCACACCACCCGCCACGCACGTCGGAGTCACCTAGTGCAG  9260 fluorescence intensity (a.u.)
38. TGGATGAGACCGACCCTTGTTTGGCTTGTTGTTCATAGTTCGGAGTCACCTAGTGCAG  9260 fluorescence intensity (a.u.)
39. ACTTGTAAGTTGTGAATCTTATTTCTGCATATCGCATCAACGGAGTCACCTAGTGCAG  9230 fluorescence intensity (a.u.)
40. AAGACCGTTCCACCCACACGTCTCCACACGCTTAGGGCCTCGGAGTCACCTAGTGCAG  9150 fluorescence intensity (a.u.)
41. CCCAACGAATTTACGTACGTCTCGCTCTGTTGAGTCTTTACGGAGTCACCTAGTGCAG  9140 fluorescence intensity (a.u.)
42. ATGCGATTCAAATGGCCCTAAACTTTTTTTTTTCTCTACTCGGAGTCACCTAGTGCAG  9120 fluorescence intensity (a.u.)
43. ACAAATTTACCCAAAAAAAATTCGGTTTGTATTTTTTTTACGGAGTCACCTAGTGCAG  9100 fluorescence intensity (a.u.)
44. TCTAATCAAACGACCATTCATGTATATTGCAATCCTCTGTCGGAGTCACCTAGTGCAG  9080 fluorescence intensity (a.u.)
45. AGCTACGGGTATACCTTCTTTCTCTGTCTTTCTTTGCTTCCGGAGTCACCTAGTGCAG  9000 fluorescence intensity (a.u.)
46. AACCGTCAGTTTTCCTTGCTTGCTTCGCCGCGTTGCCTTTCGGAGTCACCTAGTGCAG  8840 fluorescence intensity (a.u.)
47. TGGGTTCTATATTGCCACGCTCGAGATTTGATTCAAACACCGGAGTCACCTAGTGCAG  8790 fluorescence intensity (a.u.)
48. CGGGAATTTATCGTTGGTCTCTCCATGACTCCGTTTATACCGGAGTCACCTAGTGCAG  8760 fluorescence intensity (a.u.)
49. ACCGTTGCAATTACTTATTCGTTTCCTCCTTTCAAAATATCGGAGTCACCTAGTGCAG  8700 fluorescence intensity (a.u.)
50. GCTCTTGCAGTTTGATTGCTGCTCTCGTTGGTTAATTAACCGGAGTCACCTAGTGCAG  8680 fluorescence intensity (a.u.)
51. AATATTTTATATTTCTTTTTTTATATCACAGCCATCTCTTCGGAGTCACCTAGTGCAG  8660 ± 864 fluorescence intensity (a.u.)
52. TGTGTCATCCCAGTCTCTAAACTTGCAGATCACTCGTTTACGGAGTCACCTAGTGCAG  8640 fluorescence intensity (a.u.)
53. CTCCACCTCCACCGTCGCTCGCTCCGGTTTCGTTGCTAGTCGGAGTCACCTAGTGCAG  8630 fluorescence intensity (a.u.)
54. TTTCCGTCACATCGTTCCAATTTCAACCAAACTTTCAATTCGGAGTCACCTAGTGCAG  8590 fluorescence intensity (a.u.)
55. GACGTATTGATTGTAGGAATAAGTCTTGGCTGGTTGGTCTCGGAGTCACCTAGTGCAG  8580 fluorescence intensity (a.u.)
56. CACGGAGTCAAAAAGCCCGCCATGTCTTCCATTCCACAAACGGAGTCACCTAGTGCAG  8570 fluorescence intensity (a.u.)
57. AACAAGCAGCATTCTAATTTGATCATCAACCAGCGAAATTCGGAGTCACCTAGTGCAG  8550 fluorescence intensity (a.u.)
58. TAGCAACAAACTTGATGCATACATCATCTCCACTATTTTCCGGAGTCACCTAGTGCAG  8510 fluorescence intensity (a.u.)
59. GGTCCACCTTTTTTATTTTTGTTTGCTAATTATAATATCACGGAGTCACCTAGTGCAG  8480 fluorescence intensity (a.u.)
60. TTCCTACGCAGCCTCGACCGCGTGCCGTCCGGCCTGCACACGGAGTCACCTAGTGCAG  8460 fluorescence intensity (a.u.)
61. TGACTACACATATACAACGCCCATCCTCTGTCGATCTCCTCGGAGTCACCTAGTGCAG  8380 fluorescence intensity (a.u.)
62. AACTTATTCCTCCCTATATTCCGCTCTTTTTCTCCTTTCCCGGAGTCACCTAGTGCAG  8370 fluorescence intensity (a.u.)
63. AACTTCCGGTCTGTGCACACACGCGCGCGGCTAGCAGGCACGGAGTCACCTAGTGCAG  8360 fluorescence intensity (a.u.)
64. TAATTTTGAAGTTGACTTTGATGTTTTTTCCAACACAGATCGGAGTCACCTAGTGCAG  8360 fluorescence intensity (a.u.)
65. TTATTATTTATTTTATTTGTGACTTACTTTATTATCCAAACGGAGTCACCTAGTGCAG  8350 fluorescence intensity (a.u.)
66. ACATAAGTTACTAACTGCTGCTTTTTTTTCTGAAGACTACCGGAGTCACCTAGTGCAG  8350 fluorescence intensity (a.u.)
67. TCCCCGGTTCTCGAGTCCTTTCCGTCCAATGCAGCCGCCTCGGAGTCACCTAGTGCAG  8340 fluorescence intensity (a.u.)
68. GATTTACCATTGAATTTGTCACATTCTACAATATACCATCCGGAGTCACCTAGTGCAG  8310 fluorescence intensity (a.u.)
69. CGTGCCACCAATTTCCTACCTGTCATTTGAATATCGAATTCGGAGTCACCTAGTGCAG  8300 fluorescence intensity (a.u.)
70. TGAGAAGCACCGCTCTCTCCTGCACCCGTCTCACGTGCACCGGAGTCACCTAGTGCAG  8300 fluorescence intensity (a.u.)
71. GTCAACCCTGCGGCTTCCAAATGACATAAGCAGAGAAACACGGAGTCACCTAGTGCAG  8220 fluorescence intensity (a.u.)
72. CGTCGTCTCCCTCGTCTCCGCCCACTGCTCCACCACACACCGGAGTCACCTAGTGCAG  8180 fluorescence intensity (a.u.)
73. ATTGTGGGTTTCCGTGTCCGACGTTTAAAATAAGACGAAGCGGAGTCACCTAGTGCAG  8170 fluorescence intensity (a.u.)
74. CTCCATCCGCGGCGCATCCCATCTCGCCCCGGCGACTCGTCGGAGTCACCTAGTGCAG  8140 fluorescence intensity (a.u.)
75. GCTATTCCTAGCTGGTCCATACATTTTTTGTTGCTAAAGCCGGAGTCACCTAGTGCAG  8140 fluorescence intensity (a.u.)
76. ACAACCTCTGCGCAACGATCATAAATTTCTACCACAACTTCGGAGTCACCTAGTGCAG  8090 fluorescence intensity (a.u.)
77. GGCGAAGAGATTTTGGTGTGGTCATTGCTTTTGAGAAAGACGGAGTCACCTAGTGCAG  8090 fluorescence intensity (a.u.)
78. CCGTTCTCCCACCAGTCCATTGCCGCTGGTGGCAATCTTCCGGAGTCACCTAGTGCAG  8090 fluorescence intensity (a.u.)
79. CGATGTTGACAATATACCTTGTCTGAAGAGCACCTCATGCCGGAGTCACCTAGTGCAG  8080 fluorescence intensity (a.u.)
80. CTTCTCGGTTTTTTCCGTGCGGTCGAAGCATCGGTTCCTTCGGAGTCACCTAGTGCAG  8080 fluorescence intensity (a.u.)
81. TGGTGCTGATCAAATTCTATTTCTAGACCTACTTAATTAACGGAGTCACCTAGTGCAG  8080 fluorescence intensity (a.u.)
82. GTGGACGACGACCTCGTTTCGCTGCAGTCTTGCGCGCGCGCGGAGTCACCTAGTGCAG  8070 fluorescence intensity (a.u.)
83. CTCCAATGCCGTTCACATGATCTCACTCTCTCTCGCTCTCCGGAGTCACCTAGTGCAG  8070 fluorescence intensity (a.u.)
84. TGCGTTGGCGGTGGGCTCTGTGTGCGGGTTCCTGATGATGCGGAGTCACCTAGTGCAG  8040 fluorescence intensity (a.u.)
